Experimental data published in article PMC6411979.
No constants are given. Whether binding was seen depends on the method and setting. For some assays here: Binding seen in cells or lysates may run through a third protein. Some entries that bind do so weakly or less than the wild type.

Sequences of proteins named here, by UniProt entry; tags and fusion partners are left off.
UniProt Q01105: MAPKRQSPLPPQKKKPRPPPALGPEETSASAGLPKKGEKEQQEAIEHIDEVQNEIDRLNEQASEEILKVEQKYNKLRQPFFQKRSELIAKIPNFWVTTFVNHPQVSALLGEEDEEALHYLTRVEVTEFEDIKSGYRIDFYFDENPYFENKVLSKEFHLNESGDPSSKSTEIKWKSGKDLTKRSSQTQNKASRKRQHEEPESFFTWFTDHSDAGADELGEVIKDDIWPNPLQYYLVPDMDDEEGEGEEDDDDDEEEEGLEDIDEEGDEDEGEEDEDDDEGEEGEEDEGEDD
UniProt Q12778: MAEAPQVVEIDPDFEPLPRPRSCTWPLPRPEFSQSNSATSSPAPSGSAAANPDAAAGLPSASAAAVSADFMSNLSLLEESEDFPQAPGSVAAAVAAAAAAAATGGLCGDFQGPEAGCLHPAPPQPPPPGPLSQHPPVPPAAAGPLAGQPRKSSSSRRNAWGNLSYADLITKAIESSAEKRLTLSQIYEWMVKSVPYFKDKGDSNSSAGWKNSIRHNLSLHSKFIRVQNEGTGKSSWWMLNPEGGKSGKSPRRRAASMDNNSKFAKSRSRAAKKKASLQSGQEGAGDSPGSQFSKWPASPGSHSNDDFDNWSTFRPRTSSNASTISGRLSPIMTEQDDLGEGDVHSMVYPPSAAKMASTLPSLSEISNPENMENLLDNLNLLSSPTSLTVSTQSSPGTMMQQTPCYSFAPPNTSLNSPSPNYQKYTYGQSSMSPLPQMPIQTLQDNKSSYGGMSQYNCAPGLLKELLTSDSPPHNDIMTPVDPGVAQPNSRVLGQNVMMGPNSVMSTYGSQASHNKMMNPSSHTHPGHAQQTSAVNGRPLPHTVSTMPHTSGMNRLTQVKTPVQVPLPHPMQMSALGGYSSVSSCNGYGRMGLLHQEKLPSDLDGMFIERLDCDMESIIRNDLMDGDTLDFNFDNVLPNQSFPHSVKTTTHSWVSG

Tests used:
GST-SET fusion protein = GST-SET fusion protein (UniProt Q01105); assay: pull-down; GST-SET immobilised on glutathione-agarose, incubated with purified Flag-tagged FOXO1 or FOXO1^KQ; bound proteins seen by Western blot with anti-Flag antibody; both purified
[1] = biological target: Flag-tagged FOXO1 (expressed in HEK293T) (UniProt Q12778); assay: co-IP; HEK293T cells co-transfected with Myc-SET and Flag-FOXO1 or Flag-FOXO1^KQ; whole cell extracts; immunoprecipitation with Flag (M2) affinity beads; Western blot for the Myc and Flag tags

Row | Substance | binding (GST-SET fusion protein) | binding [1]
1 | Flag-tagged full-length wild type FOXO1 (purified) (from UniProt Q12778 1-655) | binds | –
2 | Myc-tagged SET (from UniProt Q01105 1-290) | – | binds
